# Measurements taken from ChEMBL document CHEMBL4316593 (Eur J Med Chem, 2019).
# This continues a long series; more values of the same kind are listed elsewhere.
# Legend:
# Format in all cases: cell-based
# Details in all cases: U-87MG ATCC
# [1] = Inhibition of RTK/PI3K/AKT/mTOR signaling in human U87 cells assessed as down regulation of UBR7 gene expression at cytotoxic IC50 measured after 48 hrs relative to control
# [2] = Inhibition of RTK/PI3K/AKT/mTOR signaling in human U87 cells assessed as down regulation of ZNF280C gene expression at cytotoxic IC50 measured after 48 hrs relative to control
# [3] = Inhibition of RTK/PI3K/AKT/mTOR signaling in human U87 cells assessed as down regulation of RBM48 gene expression at cytotoxic IC50 measured after 48 hrs relative to control
# [4] = Inhibition of RTK/PI3K/AKT/mTOR signaling in human U87 cells assessed as down regulation of GAS6 gene expression at cytotoxic IC50 measured after 48 hrs relative to control
# [5] = Inhibition of RTK/PI3K/AKT/mTOR signaling in human U87 cells assessed as down regulation of ALS2 gene expression at cytotoxic IC50 measured after 48 hrs relative to control
# [6] = Inhibition of RTK/PI3K/AKT/mTOR signaling in human U87 cells assessed as down regulation of PPP2CB gene expression at cytotoxic IC50 measured after 48 hrs relative to control
# [7] = Inhibition of RTK/PI3K/AKT/mTOR signaling in human U87 cells assessed as down regulation of EIF2AK2 gene expression at cytotoxic IC50 measured after 48 hrs relative to control
# [8] = Inhibition of RTK/PI3K/AKT/mTOR signaling in human U87 cells assessed as down regulation of EPHX1 gene expression at cytotoxic IC50 measured after 48 hrs relative to control
# [9] = Inhibition of RTK/PI3K/AKT/mTOR signaling in human U87 cells assessed as down regulation of PHF3 gene expression at cytotoxic IC50 measured after 48 hrs relative to control
# [10] = Inhibition of RTK/PI3K/AKT/mTOR signaling in human U87 cells assessed as down regulation of GOLM1 gene expression at cytotoxic IC50 measured after 48 hrs relative to control
# [11] = Inhibition of RTK/PI3K/AKT/mTOR signaling in human U87 cells assessed as down regulation of THOC5 gene expression at cytotoxic IC50 measured after 48 hrs relative to control
# [12] = Inhibition of RTK/PI3K/AKT/mTOR signaling in human U87 cells assessed as down regulation of PSME3 gene expression at cytotoxic IC50 measured after 48 hrs relative to control
# [13] = Inhibition of RTK/PI3K/AKT/mTOR signaling in human U87 cells assessed as up regulation of CHST1 gene expression at cytotoxic IC50 measured after 48 hrs relative to control
# [14] = Inhibition of RTK/PI3K/AKT/mTOR signaling in human U87 cells assessed as up regulation of ERRFI1 gene expression at cytotoxic IC50 measured after 48 hrs relative to control
# [15] = Inhibition of RTK/PI3K/AKT/mTOR signaling in human U87 cells assessed as up regulation of SH3TC2 gene expression at cytotoxic IC50 measured after 48 hrs relative to control
# [16] = Inhibition of RTK/PI3K/AKT/mTOR signaling in human U87 cells assessed as up regulation of ARHGAP29 gene expression at cytotoxic IC50 measured after 48 hrs relative to control
# [17] = Inhibition of RTK/PI3K/AKT/mTOR signaling in human U87 cells assessed as up regulation of membrane palmitoylated protein 7 gene expression at cytotoxic IC50 measured after 48 hrs relative to control
# [18] = Inhibition of RTK/PI3K/AKT/mTOR signaling in human U87 cells assessed as up regulation of keratin 15 gene expression at cytotoxic IC50 measured after 48 hrs relative to control
# [19] = Inhibition of RTK/PI3K/AKT/mTOR signaling in human U87 cells assessed as up regulation of wntless Wnt ligand secretion mediator gene expression at cytotoxic IC50 measured after 48 hrs relative to control
# [20] = Inhibition of RTK/PI3K/AKT/mTOR signaling in human U87 cells assessed as up regulation of pyroglutamyl-peptidase I gene expression at cytotoxic IC50 measured after 48 hrs relative to control
# [21] = Inhibition of RTK/PI3K/AKT/mTOR signaling in human U87 cells assessed as up regulation of prolyl 4-hydroxylase subunit alpha 2 gene expression at cytotoxic IC50 measured after 48 hrs relative to control
# [22] = Inhibition of RTK/PI3K/AKT/mTOR signaling in human U87 cells assessed as up regulation of nucleobindin 2 gene expression at cytotoxic IC50 measured after 48 hrs relative to control
# [23] = Inhibition of RTK/PI3K/AKT/mTOR signaling in human U87 cells assessed as up regulation of calcineurin like phosphoesterase domain containing 1 gene expression at cytotoxic IC50 measured after 48 hrs relative to control
# [24] = Inhibition of RTK/PI3K/AKT/mTOR signaling in human U87 cells assessed as up regulation of family with sequence similarity 117 member B gene expression at cytotoxic IC50 measured after 48 hrs relative to control
# [25] = Inhibition of RTK/PI3K/AKT/mTOR signaling in human U87 cells assessed as up regulation of replication initiator 1 gene expression at cytotoxic IC50 measured after 48 hrs relative to control
# [26] = Inhibition of RTK/PI3K/AKT/mTOR signaling in human U87 cells assessed as up regulation of Sad1 and UNC84 domain containing 1 gene expression at cytotoxic IC50 measured after 48 hrs relative to control
# [27] = Inhibition of RTK/PI3K/AKT/mTOR signaling in human U87 cells assessed as up regulation of calumenin gene expression at cytotoxic IC50 measured after 48 hrs relative to control
# [28] = Inhibition of RTK/PI3K/AKT/mTOR signaling in human U87 cells assessed as up regulation of PRAG1 gene expression at cytotoxic IC50 measured after 48 hrs relative to control
# [29] = Inhibition of RTK/PI3K/AKT/mTOR signaling in human U87 cells assessed as up regulation of IL18 gene expression at cytotoxic IC50 measured after 48 hrs relative to control
# [30] = Inhibition of RTK/PI3K/AKT/mTOR signaling in human U87 cells assessed as up regulation of CUX1 gene expression at cytotoxic IC50 measured after 48 hrs relative to control
# [31] = Inhibition of RTK/PI3K/AKT/mTOR signaling in human U87 cells assessed as up regulation of PITPNB gene expression at cytotoxic IC50 measured after 48 hrs relative to control
# [32] = Inhibition of RTK/PI3K/AKT/mTOR signaling in human U87 cells assessed as up regulation of RPS18 gene expression at cytotoxic IC50 measured after 48 hrs relative to control
smiles,measurement,setting,value
CC(=O)C(=NNc1ccccc1C#N)C(C)=O,log2FC,[1],-1.27
same,log2FC,[2],-1.23
same,log2FC,[3],-0.973
same,log2FC,[4],-0.943
same,log2FC,[5],-0.734
same,log2FC,[6],-0.723
same,log2FC,[7],-0.667
same,log2FC,[8],-0.638
same,log2FC,[9],-0.592
same,log2FC,[10],-0.49
same,log2FC,[11],-0.488
same,log2FC,[12],-0.471
same,log2FC,[13],2.28
same,log2FC,[14],2.24
same,log2FC,[15],1.65
same,log2FC,[16],1.62
same,log2FC,[17],1.45
same,log2FC,[18],1.33
same,log2FC,[19],1.2
same,log2FC,[20],1.18
same,log2FC,[21],1.15
same,log2FC,[22],1.12
same,log2FC,[23],1
same,log2FC,[24],0.896
same,log2FC,[25],0.814
same,log2FC,[26],0.795
same,log2FC,[27],0.704
same,log2FC,[28],0.592
same,log2FC,[29],0.591
same,log2FC,[30],0.576
same,log2FC,[31],0.468
same,log2FC,[32],0.387
